Drawing on article doi:10.1101/2024.12.19.629515, this text covers binding for twelve molecules.

Sequences of proteins named here, by UniProt entry; tags and fusion partners are left off. A change or cut given only in a name is not applied to a line headed by its entry.
UniProt O22476: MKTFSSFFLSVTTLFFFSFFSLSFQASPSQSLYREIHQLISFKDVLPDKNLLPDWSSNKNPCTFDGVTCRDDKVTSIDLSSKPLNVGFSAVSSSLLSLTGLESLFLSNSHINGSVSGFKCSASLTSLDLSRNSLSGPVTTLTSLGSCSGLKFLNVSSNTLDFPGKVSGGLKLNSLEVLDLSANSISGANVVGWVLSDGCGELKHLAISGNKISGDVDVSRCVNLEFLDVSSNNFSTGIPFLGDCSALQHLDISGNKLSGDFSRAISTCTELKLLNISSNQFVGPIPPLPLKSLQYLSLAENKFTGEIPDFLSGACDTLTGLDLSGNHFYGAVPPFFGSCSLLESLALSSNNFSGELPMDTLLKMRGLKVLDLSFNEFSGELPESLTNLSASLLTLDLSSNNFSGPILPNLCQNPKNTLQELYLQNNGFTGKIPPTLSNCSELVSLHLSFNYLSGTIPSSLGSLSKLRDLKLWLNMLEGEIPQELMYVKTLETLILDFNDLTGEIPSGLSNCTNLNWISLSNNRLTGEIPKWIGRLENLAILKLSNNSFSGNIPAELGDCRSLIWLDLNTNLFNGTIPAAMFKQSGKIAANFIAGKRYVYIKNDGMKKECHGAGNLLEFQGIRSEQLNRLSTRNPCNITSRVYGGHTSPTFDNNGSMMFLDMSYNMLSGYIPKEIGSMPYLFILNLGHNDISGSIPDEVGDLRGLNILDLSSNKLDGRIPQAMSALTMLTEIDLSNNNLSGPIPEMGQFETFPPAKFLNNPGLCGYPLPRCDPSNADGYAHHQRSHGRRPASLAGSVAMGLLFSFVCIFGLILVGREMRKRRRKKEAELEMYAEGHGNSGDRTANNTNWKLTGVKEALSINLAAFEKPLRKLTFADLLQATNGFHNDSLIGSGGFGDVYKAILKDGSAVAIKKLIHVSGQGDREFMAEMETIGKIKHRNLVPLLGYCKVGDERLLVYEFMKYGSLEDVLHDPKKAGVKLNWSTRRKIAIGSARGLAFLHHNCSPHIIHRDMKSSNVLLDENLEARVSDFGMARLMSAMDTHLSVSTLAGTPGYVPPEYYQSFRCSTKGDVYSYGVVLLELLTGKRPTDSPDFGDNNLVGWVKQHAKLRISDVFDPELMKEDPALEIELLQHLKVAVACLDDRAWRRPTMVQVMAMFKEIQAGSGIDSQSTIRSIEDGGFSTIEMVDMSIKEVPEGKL
UniProt Q96299: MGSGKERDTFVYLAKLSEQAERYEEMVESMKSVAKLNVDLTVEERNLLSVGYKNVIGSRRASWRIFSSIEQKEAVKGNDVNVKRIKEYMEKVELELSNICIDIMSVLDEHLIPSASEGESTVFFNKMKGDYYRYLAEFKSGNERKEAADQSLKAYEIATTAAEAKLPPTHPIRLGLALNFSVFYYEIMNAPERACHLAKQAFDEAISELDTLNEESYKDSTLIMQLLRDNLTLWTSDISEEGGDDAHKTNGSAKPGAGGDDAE

In assay [1] the target is GST-tagged BRI1-cytoplasmic domain (GST-BRI1-CD) (Arabidopsis thaliana) (UniProt O22476). As to the kind of experiment: pull-down.
Assay [2] has as its target BRI1^ΔJM-cYFP (Arabidopsis thaliana) (UniProt O22476). The assay is described as follows: split reporter.
Assay [3] addresses GST-tagged BRI1-cytoplasmic domain (GST-BRI1-CD) (Arabidopsis thaliana), O22476. The assay is described as follows: pull-down. The conditions noted are these: remark: other sources report otherwise.

Results are given in words; binding and its absence hold for the method and conditions named. For part of these data: A result given as binding can be weak or reduced; the word gives no strength. Where a sequence is shown, tags or fusion partners need not be part of it. For part of these data: In cells and extracts the contact can be indirect.

Consider HIS-GRF9 (from UniProt Q96299 1-263), for which the binding result in assay [1] was “binds”.

B1: HIS-GRF4 (protein, UniProt P46077 1-267)
chain: MAAPPASSSAREEFVYLAKLAEQAERYEEMVEFMEKVAEAVDKDELTVEERNLLSVAYKNVIGARRASWRIISSIEQKEESRGNDDHVTTIRDYRSKIESELSKICDGILKLLDTRLVPASANGDSKVFYLKMKGDYHRYLAEFKTGQERKDAAEHTLTAYKAAQDIANAELAPTHPIRLGLALNFSVFYYEILNSPDRACNLAKQAFDEAIAELDTLGEESYKDSTLIMQLLRDNLTLWTSDMQDESPEEIKEAAAPKPAEEQKEI
B1: in assay [1], the binding entry is on record as “binds”.

B2: HIS-GRF11 (protein, UniProt Q9S9Z8 1-252)
chain: MENERAKQVYLAKLNEQAERYDEMVEAMKKVAALDVELTIEERNLLSVGYKNVIGARRASWRILSSIEQKEESKGNEQNAKRIKDYRTKVEEELSKICYDILAVIDKHLVPFATSGESTVFYYKMKGDYFRYLAEFKSGADREEAADLSLKAYEAATSSASTELSTTHPIRLGLALNFSVFYYEILNSPERACHLAKRAFDEAIAELDSLNEDSYKDSTLIMQLLRDNLTLWTSDLEEGGEQSKGHNQQDEN
Consider B2, for which, in assay [1], the binding result was “binds”.

B3: HIS-GRF10 (protein, UniProt P48347 1-254)
chain: MENEREKQVYLAKLSEQTERYDEMVEAMKKVAQLDVELTVEERNLVSVGYKNVIGARRASWRILSSIEQKEESKGNDENVKRLKNYRKRVEDELAKVCNDILSVIDKHLIPSSNAVESTVFFYKMKGDYYRYLAEFSSGAERKEAADQSLEAYKAAVAAAENGLAPTHPVRLGLALNFSVFYYEILNSPESACQLAKQAFDDAIAELDSLNEESYKDSTLIMQLLRDNLTLWTSDLNEEGDERTKGADEPQDEN
Regarding B3, in assay [1], the binding result is reported as “binds”.

B4: HIS-GRF6 (protein, UniProt P48349 1-248)
chain: MAATLGRDQYVYMAKLAEQAERYEEMVQFMEQLVTGATPAEELTVEERNLLSVAYKNVIGSLRAAWRIVSSIEQKEESRKNDEHVSLVKDYRSKVESELSSVCSGILKLLDSHLIPSAGASESKVFYLKMKGDYHRYMAEFKSGDERKTAAEDTMLAYKAAQDIAAADMAPTHPIRLGLALNFSVFYYEILNSSDKACNMAKQAFEEAIAELDTLGEESYKDSTLIMQLLRDNLTLWTSDMQEQMDEA
On to B4, for which, in assay [1], the binding result is recorded as “binds”.

B5: GRF6-nYFP (protein, UniProt P48349 1-248)
chain: MAATLGRDQYVYMAKLAEQAERYEEMVQFMEQLVTGATPAEELTVEERNLLSVAYKNVIGSLRAAWRIVSSIEQKEESRKNDEHVSLVKDYRSKVESELSSVCSGILKLLDSHLIPSAGASESKVFYLKMKGDYHRYMAEFKSGDERKTAAEDTMLAYKAAQDIAAADMAPTHPIRLGLALNFSVFYYEILNSSDKACNMAKQAFEEAIAELDTLGEESYKDSTLIMQLLRDNLTLWTSDMQEQMDEA
In the case of B5, the binding result in assay [2] is given as “no binding”.

B6: HIS-fused BAK1 cytoplasmic domain (HIS-BAK1-CD) (domain or fragment, UniProt Q94F62 247-615)
chain: AWWRRKKPQDHFFDVPAEEDPEVHLGQLKRFSLRELQVASDNFSNKNILGRGGFGKVYKGRLADGTLVAVKRLKEERTQGGELQFQTEVEMISMAVHRNLLRLRGFCMTPTERLLVYPYMANGSVASCLRERPESQPPLDWPKRQRIALGSARGLAYLHDHCDPKIIHRDVKAANILLDEEFEAVVGDFGLAKLMDYKDTHVTTAVRGTIGHIAPEYLSTGKSSEKTDVFGYGVMLLELITGQRAFDLARLANDDDVMLLDWVKGLLKEKKLEALVDVDLQGNYKDEEVEQLIQVALLCTQSSPMERPKMSEVVRMLEGDGLAERWEEWQKEEMFRQDFNYPTHHPAVSGWIIGDSTSQIENEYPSGPR
As to B6, the binding entry in assay [1] was “binds”.

B7: HIS-GRF8, P48348 1-248 (protein)
chain: MATTLSRDQYVYMAKLAEQAERYEEMVQFMEQLVSGATPAGELTVEERNLLSVAYKNVIGSLRAAWRIVSSIEQKEESRKNEEHVSLVKDYRSKVETELSSICSGILRLLDSHLIPSATASESKVFYLKMKGDYHRYLAEFKSGDERKTAAEDTMIAYKAAQDVAVADLAPTHPIRLGLALNFSVFYYEILNSSEKACSMAKQAFEEAIAELDTLGEESYKDSTLIMQLLRDNLTLWTSDMQEQMDEA
B7: the binding result in assay [3] is on record as “binds”.

B8: HIS-GRF1 (protein, UniProt P42643 1-267)
chain: MATPGASSARDEFVYMAKLAEQAERYEEMVEFMEKVAKAVDKDELTVEERNLLSVAYKNVIGARRASWRIISSIEQKEESRGNDDHVSLIRDYRSKIETELSDICDGILKLLDTILVPAAASGDSKVFYLKMKGDYHRYLAEFKSGQERKDAAEHTLTAYKAAQDIANSELAPTHPIRLGLALNFSVFYYEILNSPDRACNLAKQAFDEAIAELDTLGEESYKDSTLIMQLLRDNLTLWTSDMQDDVADDIKEAAPAAAKPADEQQS
As for B8, the binding result in assay [1] is “binds weakly”.

B9: HIS-GRF2 (protein, UniProt Q01525 1-259)
chain: MASGREEFVYMAKLAEQAERYEEMVEFMEKVSAAVDGDELTVEERNLLSVAYKNVIGARRASWRIISSIEQKEESRGNDDHVTAIREYRSKIETELSGICDGILKLLDSRLIPAAASGDSKVFYLKMKGDYHRYLAEFKTGQERKDAAEHTLAAYKSAQDIANAELAPTHPIRLGLALNFSVFYYEILNSPDRACNLAKQAFDEAIAELDTLGEESYKDSTLIMQLLRDNLTLWTSDMQDDAADEIKEAAAPKPTEEQQ
For the molecule B9, the binding entry in assay [1] was “binds”.

B10: HIS-GRF5 (protein, UniProt P42645 1-268)
chain: MSSDSSREENVYLAKLAEQAERYEEMVEFMEKVAKTVETEELTVEERNLLSVAYKNVIGARRASWRIISSIEQKEDSRGNSDHVSIIKDYRGKIETELSKICDGILNLLEAHLIPAASLAESKVFYLKMKGDYHRYLAEFKTGAERKEAAESTLVAYKSAQDIALADLAPTHPIRLGLALNFSVFYYEILNSSDRACSLAKQAFDEAISELDTLGEESYKDSTLIMQLLRDNLTLWTSDLNDEAGDDIKEAPKEVQKVDEQAQPPPSQ
Turning to B10, the binding result in assay [1] was “binds”.

B11: HIS-GRF3 (protein, UniProt P42644 1-255)
chain: MSTREENVYMAKLAEQAERYEEMVEFMEKVAKTVDVEELSVEERNLLSVAYKNVIGARRASWRIISSIEQKEESKGNEDHVAIIKDYRGKIESELSKICDGILNVLEAHLIPSASPAESKVFYLKMKGDYHRYLAEFKAGAERKEAAESTLVAYKSASDIATAELAPTHPIRLGLALNFSVFYYEILNSPDRACSLAKQAFDDAIAELDTLGEESYKDSTLIMQLLRDNLTLWTSDMTDEAGDEIKEASKPDGAE
On to B11, for which the binding entry in assay [1] is “binds”.
